From US7276484B2, “Dipeptide inhibitors of β-secretase” (Elan Pharmaceuticals, Inc., priority 1999, dated 2007)
The match of structure and compound is tentative.

Protein sequences, listed by entry. Tags and fused reporters are not part of them. Residues count along the entry.
UniProt P56817, 46-501 limits assumed: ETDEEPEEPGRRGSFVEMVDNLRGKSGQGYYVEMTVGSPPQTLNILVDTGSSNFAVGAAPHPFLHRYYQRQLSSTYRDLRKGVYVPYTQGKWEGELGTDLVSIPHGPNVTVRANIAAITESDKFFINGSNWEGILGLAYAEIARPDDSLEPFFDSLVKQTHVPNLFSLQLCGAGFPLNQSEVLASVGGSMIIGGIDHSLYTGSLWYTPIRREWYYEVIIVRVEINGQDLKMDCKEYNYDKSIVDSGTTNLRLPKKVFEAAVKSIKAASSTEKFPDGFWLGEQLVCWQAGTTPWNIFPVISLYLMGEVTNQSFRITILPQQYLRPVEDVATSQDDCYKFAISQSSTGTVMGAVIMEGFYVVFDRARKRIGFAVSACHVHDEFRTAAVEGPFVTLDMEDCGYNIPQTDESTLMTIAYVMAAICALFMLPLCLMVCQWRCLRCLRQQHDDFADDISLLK

Molecular target: Human brain β-Secretase (Homo sapiens, UniProt P56817)
Test: MBP-C125 enzyme inhibition assay (ELISA detection of β-secretase cleavage of MBP-C125 substrate)
Conditions: read-out: IC50 Grouping, pH 4.5, 37° C., 90 minutes

IC50: 100 to 200 µM
SMILES: CC(C)C[C@H](NC(=O)[C@H](O)c1cccc2ccccc12)[C@@H](O)CC(=O)N[C@H](C(=O)NCCc1ccc(C(=O)O)cc1)C(C)C
